Experimental data published in US8318664B2, “Unacylated ghrelin fragments as therapeutic agent in the treatment of obesity” (Alize Pharma SAS, priority 2007, dated 2012).

Tested on: C57BL/6J male mice on high fat diet
Test: High fat diet (HFD) pre-diabetic/onset obesity model in C57BL/6J mice
Type: in vivo, mouse
Details: 4 nmol/kg/hr
Protocol: In order to assess the effects of UAG and cyclic UAG (6-13) on the metabolic responses to a high fat diet, ten (10) week old C57BL/6J male mice were allowed to acclimatize in the animal facility for 1 week. The mice were fed a standard chow (also referred herein as “normal diet” or “ND”, 9% kcal fat) and were maintained in 12 hour:12 hour light:dark conditions at 21° C. (FIG. 17). […]
Body weight and 24 h food intake were measured weekly for 4 weeks and IPGTTs were performed bi-weekly for 4 weeks. […]
GTTs were performed following a 6 h fast starting at 8 am, then ˜100 μl of blood was collected from the tail vein (t=0) for measurement of insulin under fasting conditions (no anesthesia). […] Glucose was then measured using a glucometer using ˜0.5 μl of tail vein blood at t=0, 15, 30, 45, 60 and 120 minutes. […]
The day after the final IPGTT, mice were fasted for 4 h starting at 8 am, then injected with human insulin (Actrapid, Novo Nordisk) at 0.5 IU/kg. Glucose in tail vein blood (˜0.5 μl) was measured with a glucometer at t=0, 15, 30, 45, 60 and 120 minutes (no anesthesia).
Tail vein blood glucose was measured by glucometer biweekly from free-fed mice in the non-IPGTT experimental streams (no anesthesia).

SPEHQRVQ (also: cyclic (positions not given here)) [cyclic UAG (6-13)]
24 h food intake: independent of food consumption

No end group written: not given here.
